Test results reported in PMC9415822, “Amphotericin B-PEG Conjugates of ZnO Nanoparticles: Enhancement Antifungal Activity with Minimal Toxicity” (Pharmaceutics, 2022).
In brackets after ≈: the same amount, converted by molar mass.

Test system: Candida albicans ATCC 64548
Assay: In vitro antifungal assay, broth microdilution (MIC/MFC), C. albicans
Type: cell-based
Conditions: ATCC64548, RPMI 1640, 37 °C, 24 h
Procedure: The broth microdilution method was used to assess the antifungal susceptibility of free AMB, and ZnO, ZnO-AMB, and ZnO-AMB-PEG nanoparticles against Candida albicans ATCC 64548 and Cryptococcus neoformans ATCC 90112 according to the Clinical Laboratory and Standards Institute Guidelines (CLSI, 2015). The nanoparticle solutions were serially diluted in sterile saline to obtain dilutions ranging from 5.0 to 0.00625 µg/mL. Aliquots (100 µL) from different dilutions of different preparations were transferred to the wells of 96-well microtiter plate. Fresh cultures of the tested strains were suspended in RPMI 1640 provided with L-glutamine and MOPS at pH 7.0 to prepare suspensions with a turbidity approximating that of 0.5 McFarland Standard. The fungal suspensions were diluted 1:100 with RPMI 1640 to obtain cell density of 1 × 10^5 CFU/mL. Of the prepared fungal suspensions, 100 µL was added to all dilutions of nanoparticle preparations. […] The minimum inhibitory concentration (MIC) was considered as the lowest concentration that inhibited the visible turbidity. The experiment was repeated six times and both positive control (inoculated fungi in broth without any addition) and negative control (sterile broth without fungi) were included in the experiment. The minimum fungicidal concentration (MFC) was determined according to [23].

MIC: 0.1 µg/mL (≈ 0.108 µM)
Structure (SMILES): C[C@@H]1[C@H](O)[C@@H](C)/C=C/C=C/C=C/C=C/C=C/C=C/C=C/[C@H](O[C@@H]2O[C@H](C)[C@@H](O)[C@H](N)[C@@H]2O)C[C@@H]2O[C@](O)(C[C@@H](O)C[C@@H](O)[C@H](O)CC[C@@H](O)C[C@@H](O)CC(=O)O[C@H]1C)C[C@H](O)[C@H]2C(=O)O [AMB, Amphotericin B]
